PMC9769551
For at least one entry, the source does not settle the construct or the ends of the probe. The comparison behind a weaker result is the experiment's own reference, which may not be listed here.

By UniProt entry, the sequences of proteins in these tests, tags left out. Where a name states a change or a piece, a line headed by the entry shows the natural chain unless it says otherwise.
UniProt P0ACS9: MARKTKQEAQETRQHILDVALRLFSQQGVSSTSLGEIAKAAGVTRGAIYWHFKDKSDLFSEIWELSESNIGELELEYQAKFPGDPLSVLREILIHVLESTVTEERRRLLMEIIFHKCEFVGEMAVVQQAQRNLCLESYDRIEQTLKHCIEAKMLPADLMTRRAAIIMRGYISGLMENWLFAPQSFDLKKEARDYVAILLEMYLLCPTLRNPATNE

Biological target: AcrR (Escherichia coli BW25113) (UniProt P0ACS9)
Experiment: EMSA
Conditions: 0.4 uM AcrR, 10 mM putrescine (partial disruption); 10 mM Tris-HCl pH 7.5, 50 mM KCl, 1 mM DTT, 5 mM MgCl2, 1 ug poly(dI-dC), 0.05% NP-40, 5% glycerol, 20 uL with 25 fmol DNA; recombinant protein; residues 1-215; protein details: C-terminal 6xHis; label: 3'-biotin; probe letters rebuilt from the primers and the genome

## TGTTCATATGTAAACCTCGAGTGTCCGATTTCAAATTGGTCAATGGTCAAAAGTTAATAAACCCATTGCTGCGTTTATATTATCGTCGTGCTATGGTACATACATTCACAAATGTATGTAAATCTAACGCCTGTAAATTCACGAACATATGGCACGAAAAACCAAACAAGAAGCGCAAG (double strand) [acrABp 179 bp]
  binding result: binds more weakly
